Measurements reported in PubChem BioAssay AID624156 (Broad Institute, 2012).
The campaign covered roughly 46,000 compounds. About 900 (2%) were called active. This list was built around the results that the source calls inconclusive (neither active nor inactive); the mix of calls is not that of the screen. No stated cut-off is given here; in the data, active means ROS induction above about 79% (passing the limit was not always enough); inconclusive means no clear call, values can overlap the other calls.

Assay: ROS inducers in U2OS cancer cells, primary screen, cell-based, H2DCF-DA fluorescence (AID 624156);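 further: 0% = DMSO vehicle median and 100% = reference compound median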
Details: at 10 µM, active compounds read high

Row | Structure (SMILES) | ROS induction (% of piperlongumine)
1 | Cc1cccc(NC(=O)CSc2nnc(-c3cccs3)n2-c2ccccc2)c1 | inconclusive: 151%
2 | COc1ccc(CN(C)C[C@H]2Oc3ccc(NC(=O)Nc4ccc(OC)cc4)cc3C(=O)N([C@@H](C)CO)C[C@H]2C)cc1 | inactive: 6.46%
3 | COC(=O)COc1cccc(NC(=O)c2cc(OC)cc(OC)c2)c1 | active: 108%
4 | C[C@H]1CN([C@@H](C)CO)C(=O)CCCn2nncc2CO[C@H]1CN(C)S(=O)(=O)c1ccc2ccccc2c1 | inconclusive: 86.9%
5 | C[C@H]1CN([C@@H](C)CO)C(=O)c2cccc(NC(=O)c3cnccn3)c2O[C@H]1CN(C)C | inactive: -0.305%
6 | COc1ccc(S(=O)(=O)Nc2ccc3c(c2)C(=O)N([C@H](C)CO)C[C@H](C)[C@H](CN(C)S(C)(=O)=O)O3)cc1 | inconclusive: 198%
7 | CSc1sc(C(=O)Sc2ccccc2)c2c1S(=O)(=O)N(C)c1ccccc1-2 | inactive: 3.31%
8 | Cc1cc(S(N)(=O)=O)c2ncccc2c1 | inconclusive: 88.1%
9 | COc1ccc(NC(=O)Nc2ccc3c(c2)C(=O)N([C@H](C)CO)C[C@@H](C)[C@@H](CN(C)CC2CCCCC2)O3)cc1 | inconclusive: 372%
10 | C=CCNC(=O)[C@H]1[C@@H]2C(=O)O[C@@H](c3ccccc3)[C@@H](c3ccccc3)N2[C@@H](c2ccccc2OCCO)[C@]12C(=O)N(C(=O)OCCOC)c1ccc(C#CC3(O)CCCCCC3)cc12 | active: 94.9%
11 | COc1ccc(OC)c(NC(=O)C2=C(C)NC(=S)NC2c2ccc(OC)cc2OC)c1 (stereo not given) | inconclusive: 75.9%
12 | O=C1C(=O)N(CCn2c3ccccc3c3nc4ccccc4nc32)c2ccccc21 | inconclusive: 91.7%
13 | Cc1noc(C)c1NC(=O)Nc1ccc2c(c1)C(=O)N([C@H](C)CO)C[C@H](C)[C@H](CN(C)C(=O)CCCN(C)C)OCCCC[C@@H](C)O2 | inactive: 5.76%
14 | C[C@@H]1CN([C@H](C)CO)C(=O)c2cc(NS(C)(=O)=O)ccc2O[C@@H]1CN(C)Cc1ccc(C(F)(F)F)cc1 | inconclusive: 140%
15 | Cc1noc(C)c1NC(=O)Nc1cccc2c1O[C@@H](CN(C)S(C)(=O)=O)[C@H](C)CN([C@H](C)CO)C2=O | active: 100%
16 | C[C@H](CO)N1C[C@H](C)[C@H](CN(C)S(=O)(=O)c2cccc(F)c2)Oc2ncc(C#Cc3cccc(F)c3)cc2C1=O | inconclusive: 77.3%
17 | O=c1nc2c(-c3cccc(C(F)(F)F)c3)n[nH]n2c2ccccc12 | inconclusive: 76.1%
18 | CCOC(=O)CSc1nc(-c2ccccc2)nc2sc3c(c12)CCCC3 | inconclusive: 96.7%
19 | CC1OC(OC(=O)C2=CC3(O)CC(C)(C)CC34C(C)CCC24)C(O)C(O)C1O (stereo not given) | inactive: -11.8%
20 | CCOC(=O)c1cnc2ccc(OCC)cc2c1N1CCN(c2ccccc2)CC1 | active: 128%

As entered above.
ROS induction (% of piperlongumine) with C[C@H]1CN([C@@H](C)CO)C(=O)c2cccc(NC(=O)c3cnccn3)c2O[C@H]1CN(C)C is entered as inactive: -0.305%
ROS induction (% of piperlongumine) with COc1ccc(OC)c(NC(=O)C2=C(C)NC(=S)NC2c2ccc(OC)cc2OC)c1 (stereo not given) is entered as inconclusive: 75.9%
ROS induction (% of piperlongumine) with COC(=O)COc1cccc(NC(=O)c2cc(OC)cc(OC)c2)c1 is entered as active: 108%

(listing goes on)

Row | Structure (SMILES) | ROS induction (% of piperlongumine)
21 | COc1ccccc1C1CC(c2ccc(C)cc2)=NN1C(=O)CCC(=O)O (stereo not given) | inconclusive: 82.1%
22 | O=C(CCCCCCC(=O)Nc1ccccc1O)N/N=C/c1ccc(O)c2ccccc12 | inconclusive: 78.1%
23 | C[C@H]1CN([C@@H](C)CO)C(=O)c2cc(NC(=O)Nc3cccc4ccccc34)ccc2O[C@@H]1CN(C)Cc1ccc(-c2ccccc2)cc1 | inconclusive: 123%
24 | Cc1ccc(CNC(=O)CSc2nc3ccsc3c(=O)n2C2CC2)cc1 | inactive: 8.42%
25 | COc1ccc(CN(C)C[C@H]2Oc3c(NC(=O)NC4CCCCC4)cccc3C(=O)N([C@@H](C)CO)C[C@@H]2C)cc1 | inconclusive: 178%
26 | C[C@@H]1CN([C@H](C)CO)C(=O)c2cccc(NC(=O)Nc3ccccc3)c2O[C@H]1CN(C)Cc1ccc(C(=O)Nc2ccccc2N)cc1 | inconclusive: 78.4%
27 | Cc1ccc(S(=O)(=O)Nc2ccc3c(c2)CC(=O)N([C@H](C)CO)C[C@H](C)[C@H](CN(C)S(=O)(=O)c2c(C)noc2C)O3)cc1 | inconclusive: 82.1%
28 | CC(=O)OC[C@]12[C@H](OC(C)=O)[C@H](OC(C)=O)[C@@H]3[C@@H](OC(C)=O)[C@@]14O[C@@]3(C)COC(=O)c1ncccc1CC[C@H](C)C(=O)O[C@@H]([C@H](O)[C@@H]2OC(=O)c1ccccc1)[C@]4(C)O | inconclusive: 75%
29 | Cc1cc(C(=O)Nc2cccc3c2O[C@H](CN(C)Cc2ccc(-c4ccccc4)cc2)[C@H](C)CN([C@H](C)CO)C3=O)n(C)n1 | inactive: 15.7%
30 | C[C@H]1CN([C@@H](C)CO)C(=O)c2cccc(NS(C)(=O)=O)c2O[C@@H]1CN(C)Cc1ccc(C(=O)Nc2ccccc2N)cc1 | inactive: 18.2%
31 | CC(CNC(=O)c1cc2oc3ccccc3c2n1C)c1ccccc1 (stereo not given) | inconclusive: 81.1%
32 | COc1ccc(-c2oc3cc(OC)c(OC)c(O)c3c(=O)c2OC)cc1OC | active: 81.9%
33 | C[C@@H]1CN([C@H](C)CO)C(=O)c2cccc(NC(=O)c3ccc(-c4nccs4)cc3)c2O[C@H]1CN(C)Cc1ccc(Cl)c(Cl)c1 | inconclusive: 84%
34 | C[C@H](CO)N1C[C@H](C)[C@H](CN(C)S(=O)(=O)c2ccc(Cl)cc2)Oc2c(NC(=O)CCCCCC(=O)Nc3ccccc3N)cccc2C1=O | inconclusive: 134%
35 | C[C@@H]1CN([C@@H](C)CO)C(=O)Cc2cc(NC(=O)Nc3ccc(C(F)(F)F)cc3)ccc2O[C@@H]1CN(C)C(=O)Nc1ccc2c(c1)OCO2 | inconclusive: 76.9%
36 | O=C(CCCCCCC(=O)Nc1ccccc1O)N/N=C/c1c(F)c(F)c(F)c(F)c1F | inconclusive: 123%
37 | C[C@@H]1CN([C@H](C)CO)C(=O)Cc2cc(NC(=O)Cc3ccccc3)ccc2O[C@@H]1CN(C)Cc1ccc(Cl)c(Cl)c1 | inconclusive: 84.9%
38 | CC(C)(C)c1ccc(-c2nnc(-c3ccccc3NC(=O)/C=C\C(=O)O)o2)cc1 | active: 80.1%
39 | C=C1C(=O)O[C@@H]2C3O[C@]3(C)CC/C=C(/C)CC[C@@H]12 (stereo not given in full) | active: 91.7%
40 | COc1ccc(NC(=O)Nc2ccc3c(c2)C(=O)N([C@H](C)CO)C[C@H](C)[C@H](CN(C)Cc2ccc(Cl)c(Cl)c2)OCCCC[C@@H](C)O3)cc1 | inactive: 39.8%
